No constants are given. Whether binding was seen depends on the method and setting. Some entries that bind do so weakly or less than the wild type.
Target: LexA-CnTps1(56-669) (Cryptococcus neoformans var. grubii strain H99) (UniProt Q6IVK9)
Experiment: two-hybrid

LexA-CnTps1(56-669) (from UniProt Q6IVK9 56-669) (domain or fragment)
binding: binds

— article doi:10.1101/2023.03.14.530545 (bioRxiv, 2023)
